Experimental data: the supplement of paper PMC12259267, “Disruption of the KLHL37–N-Myc complex restores N-Myc degradation and arrests neuroblastoma growth in mouse models” (The Journal of Clinical Investigation, 2025)
Some of the results follow. Repeats are few or missing, and single values can be far off.

tested on: SK-N-BE(2); experiment: inhibition of N-Myc immunofluorescence signal per cell relative to control (fraction); higher = stronger N-Myc protein reduction; conditions: 1 µM; 9 h

SMILES	inhibition of N-Myc immunofluorescence signal per cell
C[S+]([O-])CCCCN=C=S (stereo not drawn) [Sulforaphane]	0.278
CC1=C(O)C(=O)C=C2C1=CC=C1[C@@]2(C)CC[C@@]2(C)[C@@H]3C[C@](C)(C(=O)O)CC[C@]3(C)CC[C@]12C [Tripterin]	0.175
CC(=O)N[C@H]1[C@@H](O[C@@H]2O[C@H](CC(O)[C@H]3O[C@@H](n4ccc(=O)[nH]c4=O)[C@H](O)[C@@H]3O)[C@H](O)[C@H](O)[C@H]2NC(=O)/C=C/CC(C)C)O[C@H](CO)[C@@H](N)[C@@H]1O (stereo partly drawn) [Tunicamycin]	0.107
CCCCCCCCCCCCCCC(Br)C(=O)O (stereo not drawn)	0.0216
c1cncc(C2Nc3ccccc3-n3cccc32)c1 (stereo not drawn)	0.0708
O=C(O)CNC(=O)c1c(O)c2ccccc2n(Cc2ccccc2)c1=O	-0.063
Cc1cc2c(C(C)C)c(O)c(O)c(C=O)c2c(O)c1-c1c(C)cc2c(C(C)C)c(O)c(O)c(C=O)c2c1O [Gossypol]	-0.0819
Cc1sc2c(c1C)C(c1ccc(Cl)cc1)=N[C@@H](CC(=O)OC(C)(C)C)c1nnc(C)n1-2	0.347
